The values below come from patent US20080255252A1, “Infectious Aetiology of Prostatic Disease and Methods to Identify Causative Agents” (Tissugen Pty. Ltd., priority 2004, published 2008).

The structures appear in SMILES notation.

Test [1] deals with Gram-negative bacteria and Staphylococcal species. Conditions: furazolidone at 6 μg/mL in semi-selective medium, anaerobic incubation at 37° C. The protocol: (§1) Brain Heart Infusion Agar (Oxoid Australia Ltd) was prepared containing 0.5% Tween 80 and adjusted to a pH of 6.0 using hydrochloric acid prior to autoclaving. […] Both antibiotics were prepared freshly immediately prior to use, and the agar plates were incubated at 37° C. for 24 hrs to ensure sterility then stored at 4° C. and used within 3 weeks of preparation.

Test [2] concerns P. acnes Group 1, 2 and 3 isolates. Nature of the test: Growth of P. acnes isolates on semi-selective Brain Heart Infusion agar containing antibiotics. The format is cell-based, Propionibacterium acnes. The protocol: as §1
Inclusion of gentamicin as a selective agent and Tween 80 as a growth stimulant for P. acnes was previously discussed by Kishishita (1980).

For the compound `O=C1OCCN1/N=C/c1ccc([N+](=O)[O-])o1` [furazolidone], the “growth of Gram-negative bacteria and Staphylococcal species from urine samples” value in test [1] is “prevented growth”. The “growth of some strains of P. acnes Groups 2 and 3” value in test [2] (at 6 μg/mL furazolidone and 4 μg/mL gentamicin in the semi-selective medium) is “noticeable growth inhibition”. Besides, the “maximal concentration that allowed reasonable growth” value in test [2] (semi-selective agar, after 7 days of anaerobic incubation) was found to be 6 µg/mL.
